Laboratory results taken from PubChem BioAssay AID504467 (National Center for Advancing Translational Sciences (NCATS), 2011).
In all, about 330,000 compounds went through this assay and about 7,700 (2.3%) were called active. Inconclusive means that the source gave no clear call. Such entries were picked first, then a sample of the others. Calls come from the whole dose curve; as a rule, active = well fitted inhibition curve with a large enough effect; inconclusive = small, poorly fitted or top-dose-only effect, or effect the other way; inactive = flat fitted curve, though single readings scatter. Potencies of inconclusive entries are doubtful fits and often do not repeat.

Test: qHTS screen for small molecules that inhibit ELG1-dependent DNA repair in human embryonic kidney (HEK293T) cells expressing luciferase-tagged ELG1; note: nearly all actives have a fitted effect of over 55% in size
Conditions: HEK293T ELG1-luciferase reporter, luminescence, 16 h, DNA damage induced by 5-fluorouridine; series mostly up to 46.1 µM
How it was run: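 HEK293T cells expressing luciferase-tagged ELG1 (2,000/well) received 5-Fluorouridine plus compound or DMSO for 16 hr at 37 °C. Luciferase was read by ONE-Glo luminescence after 30 min at room temperature.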
Potency is the fitted concentration of half-maximal effect.

Row | SMILES | Potency
1 | Cc1ccc(OCCN2CCN(C(=O)CCC(=O)Nc3nnc(CC(C)C)s3)CC2)cc1 | active: 2.59 µM
2 | COC(=O)CC1C(=O)NCCN1C(=O)Nc1ccc(Cl)cc1 (stereo not drawn) | inconclusive: 0.146 µM [inhibitor, partial curve, poor fit]
3 | Cc1ccc(Cl)c2c(N=Nc3ccccc3)c(O)[nH]c12 | inconclusive: 2.82 µM [activator, full curve]
4 | Cc1ccccc1C(=O)c1c[nH]c(C(=O)N2CCN(c3ccccc3F)CC2)c1 | active: 23.1 µM
5 | C=CCn1c(-c2cnn(-c3ccccc3)c2N)n[nH]c1=S | inconclusive: 18.3 µM [activator, single point]
6 | CCOC(=O)C(NCc1ccc(F)cc1)(NC(=O)c1ccccc1)C(F)(F)F (stereo not drawn) | inconclusive: 2.91 µM [inhibitor, full curve, poor fit]
7 | c1ccc(SCc2cn(C[C@H]3CC[C@@H]([C@@H]4CC[C@H](Cn5cc(CSc6ccccc6)nn5)O4)O3)nn2)cc1 | active: 2.06 µM
8 | O=c1cc(N2CCCCC2)c(-c2ccccc2)nn1Cc1ccc(F)cc1 | inconclusive: 29.1 µM [inhibitor, single point]
9 | CC1(C(=O)N2CCC(CO)(Cc3cccc(C(F)(F)F)c3)CC2)CC1 | inactive
10 | Cc1cc(C(=O)CSc2cccc[n+]2[O-])c(C)n1-c1ccc(OC(F)F)cc1 | inconclusive: 16.4 µM [activator, single point]
11 | Cc1cc(=O)nc2c3ccccc3n(CC(=O)NCCCN3CCCCC3C)n12 (stereo not drawn) | inactive
12 | Cc1ccc(OCc2cc(C(=O)N(C)CCc3ccccn3)no2)cc1C | inconclusive: 20.6 µM [activator, partial curve]
13 | COC(=O)c1ccc(NC2=C(Cl)C(=O)OC2OC(=O)c2ccccc2)cc1 (stereo not drawn) | inactive
14 | COc1ccc(N(CC(=O)N/N=C/c2ccc3c(c2)OCO3)S(=O)(=O)c2ccc(NC(C)=O)cc2)cc1 | inconclusive: 29.1 µM [inhibitor, single point]
15 | CCNC(=O)CSc1nc(-c2ccccc2)cs1 | inconclusive: 20.6 µM [activator, partial curve]
16 | O=C(O)c1ccc(Cl)c(S(=O)(=O)N(Cc2ccccc2)c2ccc(F)cc2)c1 | inconclusive: 0.517 µM [activator, partial curve, poor fit]
17 | CCn1c(COc2ccccc2)nnc1SCC(=O)C(C)(C)C | inconclusive: 20.6 µM [inhibitor, single point]
18 | O=C(COc1cc2oc(=O)cc(-c3ccccc3)c2cc1Cl)NC(Cc1c[nH]c2ccc(O)cc12)C(=O)O (stereo not drawn) | inactive

From entry 3 to 4, as listed above:
Row | SMILES | Potency
3 | Cc1ccc(Cl)c2c(N=Nc3ccccc3)c(O)[nH]c12 | inconclusive: 2.82 µM [activator, full curve]
4 | Cc1ccccc1C(=O)c1c[nH]c(C(=O)N2CCN(c3ccccc3F)CC2)c1 | active: 23.1 µM
